Experimental data reported in PubChem BioAssay AID1347076 (National Center for Advancing Translational Sciences (NCATS), 2019).
Among all 400,000 compounds or so, about 13,000 (3.2%) were called active. Inconclusive results, whose numbers are uncertain, are shown with a selection of clear calls. The call rests on the fitted dose curve; in most records, active means well fitted cell-killing curve with a large enough effect; inconclusive means small, poorly fitted or top-dose-only effect, or effect the other way; inactive means flat fitted curve, though single readings scatter. Potencies of inconclusive entries are doubtful fits and often do not repeat.
Potency means the concentration at half of the fitted maximal effect.

Assay: qHTS assay for MDR1-selective chemotherapeutics: Primary screen using the drug-selected MDR subline cells KB-V1; further: nearly all actives have a fitted effect of over 60% in size
Conditions: KB-V1 MDR cells viability, CellTiter-Glo, 72 h; series mostly up to 46.1 µM
In short: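 KB-V1 MDR subline cells in DMEM (phenol-red free, 10% FBS) exposed to compounds in qHTS concentration series for 72 h at 37 degrees C. Viability read by CellTiter-Glo luminescence; concentration-effect curves fitted after normalization and correction.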
For `Fc1ccc(NC(=S)NCCN2CCOCC2)cc1`, the Potency was “inactive”.
In the case of `COc1cc(NCCCCC(C)N)c2nccc(C)c2c1` (stereo not given), the Potency is reported as inconclusive: 23.1 µM [cytotoxic, partial curve, poor fit].
With `CNCc1c(OCc2ccc(F)cc2)ccc2ccccc12` the Potency was “inactive”.
For `CNC(=O)c1ccc(NC(=O)CC2SC(N3CCCC3)=NC2=O)cc1` (stereo not given), the Potency was “inactive”.
In the case of `O=C(COc1cc(Cl)c(Cl)cc1Cl)NCCc1ccccn1`, the Potency is reported as inconclusive: 14.6 µM [cytotoxic, single point].
With `COc1ccc2oc(-c3ccncc3)cc(=O)c2c1` the Potency was active: 3.66 µM.
For `COc1cccc(-c2sc3ccccc3c2-c2ccc(OCCN3CCCCC3)cc2)c1`, the Potency was inconclusive: 29.1 µM [cytotoxic, single point].
With `COC(=O)c1ccccc1NC(=O)c1cnc2c(-c3cccc(C)c3)c(C)nn2c1C` the Potency was inconclusive: 29.1 µM [rising, single point].
In the case of `C[C@H]1CN([C@@H](C)CO)C(=O)CCCn2nncc2CO[C@H]1CN(C)S(=O)(=O)c1ccc(C#N)cc1`, the Potency is reported as “inactive”.
In the case of `O=C(NCCCn1ccnc1)C(=O)NCC1OCCN1S(=O)(=O)c1ccc(Br)cc1` (stereo not given), the Potency is reported as inconclusive: 29.1 µM [rising, single point].
For `Cc1cccc(C(=O)N[C@H](C(=O)NCCc2ccc(Cl)cc2)C(C)C)c1`, the Potency was inconclusive: 4.61 µM [cytotoxic, full curve].
With `O=C(O)c1ccccc1C(=O)NNc1cccc(Cl)n1` the Potency was “inactive”.
In the case of `CCOC(=O)c1sc2nc(CC(=O)OC)nc(NCCN3CCOCC3)c2c1C`, the Potency is reported as active: 3.66 µM.
With `Cc1cccc(C)c1NC(=O)CN(C)CC(=O)Nc1ccc(F)c(Cl)c1` the Potency was active: 14.6 µM.
In the case of `CCn1c(NC(=O)c2ccccc2)nc2ccccc21`, the Potency is reported as inconclusive: 29.1 µM [cytotoxic, single point].
With `Cc1ccc(Cl)cc1NC(=O)Nn1cnnc1` the Potency was inconclusive: 29.1 µM [rising, single point].
For `CCS(=O)(=O)N1CC(=O)N(c2ccc(Cl)cc2)C(C)(C(=O)NC2CCCCCC2)C1` (stereo not given), the Potency was “inactive”.
For `CCc1ccc(C(=O)c2cn(Cc3ccc(F)cc3)c3cc(OC)c(OC)cc3c2=O)cc1`, the Potency was inconclusive: 29.1 µM [cytotoxic, single point].
With `CN(C)CCCN(C(=O)c1ccc(S(=O)(=O)N2CCCCCC2)cc1)c1nc2ccc(Br)cc2s1` the Potency was active: 23.1 µM.
For `Cc1cc(C)cc(Oc2nc3c(C)cccn3c(=O)c2/C=C(\C#N)c2nc3ccccc3s2)c1`, the Potency was “inactive”.
With `O=C(c1ccccc1)C(I)(I)N1CCOCC1` the Potency was “inactive”.
For `Cc1ccc(CNC(=O)c2cc(-c3ccc(Cl)cc3)on2)cc1`, the Potency was “inactive”.
In the case of `CCOc1ccccc1/C=N/NC(=O)c1cccc(S(=O)(=O)N2CCOCC2)c1`, the Potency is reported as “inactive”.
In the case of `C=CCNC(=O)c1cc(-c2ccccc2)sc1N`, the Potency is reported as “inactive”.
With `CN(C)c1ccc(CNC(=O)CN2CCSc3ccc(S(=O)(=O)N(C)C)cc32)cc1` the Potency was inconclusive: 11.6 µM [cytotoxic, partial curve].
In the case of `Cc1cc(C)nc(NC(=NCCc2c[nH]c3ccccc23)NC(=O)Nc2ccc(Cl)cc2)n1`, the Potency is reported as active: 8.2 µM.
With `O=C(COC(=O)c1cc(S(=O)(=O)N2CCCCC2)ccc1N1CCOCC1)c1ccc(F)cc1` the Potency was “inactive”.
In the case of `CCCCCn1c(=O)[nH]c2cc(C(=O)N3CCN(c4cccc(C(F)(F)F)c4)CC3)ccc2c1=O`, the Potency is reported as “inactive”.
With `CCOc1ccc(NC(=O)Cn2c(=O)n(CC(=O)NCc3ccccc3Cl)c(=O)c3sccc32)cc1` the Potency was “inactive”.
For `CC1CCCCN1CCCNC(=O)c1nn(C)c2c1CS(=O)(=O)c1ccccc1-2` (stereo not given), the Potency was inconclusive: 7.31 µM [rising, partial curve].
With `Cn1cc(CN2CCC(Oc3ccc(C(=O)N4CCCC4)cc3)CC2)cn1` the Potency was inconclusive: 29.1 µM [rising, single point].
With `O=C(Nc1nc2ccccc2s1)c1cnccn1` the Potency was “inactive”.
With `COc1ccc(N2CC(C(=O)N3CCCC(C)C3)CC2=O)cc1` (stereo not given) the Potency was “inactive”.
With `CCN(CC)S(=O)(=O)c1ccc2nc(NC(=O)c3cncc(Br)c3)sc2c1` the Potency was inconclusive: 23.1 µM [cytotoxic, single point].
In the case of `CCOc1ccc(C(=O)Nc2cnn(Cc3ccc(Cl)c(Cl)c3)c2)cc1`, the Potency is reported as active: 2.59 µM.
With `CCc1ccccc1N1CC23C=CC(O2)C(C(=O)O)C3C1=O` (stereo not given) the Potency was “inactive”.
With `N#Cc1ccsc1NC(=O)c1cccc([N+](=O)[O-])c1` the Potency was “inactive”.
In the case of `Cc1cc2cc(C#N)c(NCCNC(=S)NCCCN3CCOCC3)nc2cc1C`, the Potency is reported as inconclusive: 25.9 µM [cytotoxic, single point].
In the case of `Cc1nnc(Sc2nc3c(c(=O)n(C)c(=O)n3C)n2Cc2ccc(Cl)cc2)s1`, the Potency is reported as inconclusive: 8.2 µM [cytotoxic, partial curve].
For `CCOc1ccc(Cn2c3ccc(OC)cc3c3nc4ccccc4nc32)cc1OC`, the Potency was “inactive”.
With `CC(NC(=O)COc1ccc(N(C)S(=O)(=O)c2ccccc2)cc1)c1ccccc1` (stereo not given) the Potency was “inactive”.
For `O=C(Cn1nc(C(=O)O)c2ccccc2c1=O)Nc1ccc(Cl)c(S(=O)(=O)N2CCOCC2)c1`, the Potency was “inactive”.
In the case of `Cc1cccc(CCN(CC(=O)NC2CCCCC2)C(=O)c2csnn2)c1`, the Potency is reported as “inactive”.
For `O=C(COC(=O)c1n[nH]c(=O)c2ccccc12)Nc1cccc(S(=O)(=O)N2CCOCC2)c1`, the Potency was inconclusive: 23.1 µM [rising, single point].
In the case of `CCOc1ccc(N(C)S(=O)(=O)c2ccc3[nH]cc(C(=O)NCc4ccccc4)c(=O)c3c2)cc1`, the Potency is reported as inconclusive: 2.59 µM [rising, full curve, poor fit].
For `Fc1c(F)c(F)c(/C=N/NC(=S)Nc2cccnc2)c(F)c1F`, the Potency was “inactive”.
For `CC1CN(c2nc(-c3ccc(Br)cc3)nnc2-c2ccccc2)CC(C)N1` (stereo not given), the Potency was “inactive”.
In the case of `COc1ccc(CCNC(=S)NC(=O)c2cccc(Cl)c2)cc1OC`, the Potency is reported as “inactive”.
For `COCCNC(=O)CSc1nc2cc(OC)c(OC)cc2c(=O)n1Cc1ccc(OC)cc1`, the Potency was active: 2.59 µM.
In the case of `Cc1cccc2cc(CN(Cc3ccco3)C(=O)Nc3cccc(C#N)c3)c(Cl)nc12`, the Potency is reported as active: 11.6 µM.
With `CCCCCc1cc(=O)oc2c(C(CCN3CCN(c4ccccc4)CC3)c3ccc4c(c3)OCO4)c(OC)cc(OC)c12` (stereo not given) the Potency was “inactive”.
In the case of `CCOC(=O)c1[nH]c(C)c(C(=O)N(C)Cc2ccccc2)c1C`, the Potency is reported as active: 16.4 µM.
In the case of `Cc1ccc2nc3[nH]c(=O)[nH]c(=O)c3c(N)c2c1`, the Potency is reported as inconclusive: 5.17 µM [cytotoxic, partial curve, poor fit].
In the case of `CCN(Cc1ccccc1)C(=O)C1CCN(Cc2ccc(OC)c(OC)c2OC)CC1`, the Potency is reported as active: 8.2 µM.
In the case of `Cc1ccc(CSc2nc3ccccc3c(=O)n2Cc2ccco2)cc1`, the Potency is reported as inconclusive: 20.6 µM [cytotoxic, single point].
For `CCOc1ccc(/C=C/[N+](=O)[O-])c2ccccc12`, the Potency was active: 18.4 µM.
In the case of `O=C(NCC1CCCO1)c1ccc2c3n(nc2c1)-c1ccccc1CO3` (stereo not given), the Potency is reported as inconclusive: 13 µM [cytotoxic, partial curve].
With `CCOC(=O)Cc1nnc(NC(=O)c2ccccc2OC)s1` the Potency was “inactive”.
With `COc1ccc(CCNc2ncnc3c2cnn3-c2cc(Cl)ccc2C)cc1` the Potency was inconclusive: 23.1 µM [cytotoxic, single point].
For `CCOC(=O)C1(Cc2ccc(OC)cc2)CCN(C(=O)Cc2cccnc2)CC1`, the Potency was inconclusive: 29.1 µM [cytotoxic, partial curve, poor fit].
With `O=C(Nc1ccc2c(c1)OCCO2)C(CCc1ccccc1)N1CCN(C/C=C/c2ccccc2)CC1` (stereo not given) the Potency was inconclusive: 20.6 µM [cytotoxic, partial curve].
For `COc1ccc(Cn2c(SCC(=O)N(C)Cc3ccccc3)nc3ccccc32)cc1`, the Potency was inconclusive: 20.6 µM [cytotoxic, single point].
For `CC1(C)CC(N2CCOCC2)=CC(=S)N1`, the Potency was “inactive”.
In the case of `Cc1ccccc1NC(=O)CCCSc1nc2ccccc2s1`, the Potency is reported as active: 14.6 µM.
With `CC(=O)N1CCc2c(sc(NC(=O)c3cccc(N4C(=O)CCC4=O)c3)c2C(N)=O)C1` the Potency was “inactive”.
With `CCN(Cc1ccccc1)S(=O)(=O)c1ccc(C(=O)Nc2nnc(-c3ccccc3OC)o2)cc1` the Potency was inconclusive: 29.1 µM [cytotoxic, single point].
In the case of `Cc1ccc(NC(=O)c2cc(S(=O)(=O)NCCc3ccc(Cl)cc3)ccc2F)cc1`, the Potency is reported as inconclusive: 32.6 µM [cytotoxic, single point].
With `Cc1cccc(-n2c(SCC(=O)Nc3nnc(C)s3)nnc2-c2ccoc2C)c1` the Potency was inconclusive: 9.2 µM [cytotoxic, partial curve, poor fit].
For `CC1(C)CSC(C)(C)C(=O)N1`, the Potency was inconclusive: 29.1 µM [cytotoxic, single point].
With `O=C(Nc1cnc(N2CCN(c3ccccc3)CC2)c(C(=O)O)c1)c1cccs1` the Potency was inconclusive: 29.1 µM [rising, single point].
In the case of `C/C=C/c1ccc(OCCCCOc2ccccc2C(C)=O)c(OC)c1`, the Potency is reported as inconclusive: 14.6 µM [cytotoxic, single point].
With `Cc1nnc(SCC(=O)Nc2ncc3c(n2)CC(C)(C)CC3=O)s1` the Potency was inconclusive: 25.9 µM [rising, single point].
With `CCCCOCCCNC(=O)C[C@@H]1C[C@@]2(C(=O)OC)CCCCC=C2N(Cc2ccc3c(c2)OCO3)C1=O` the Potency was inconclusive: 5.8 µM [cytotoxic, partial curve].
For `COc1ccccc1NS(=O)(=O)c1cc(NC(=O)c2ccccc2F)ccc1N1CCOCC1`, the Potency was inconclusive: 7.31 µM [cytotoxic, partial curve].
With `CC1CCN(S(=O)(=O)c2ccc3c(ccc(=O)n3CC(=O)Nc3cccc(F)c3)c2)CC1` the Potency was inconclusive: 2.59 µM [cytotoxic, full curve, poor fit].
